Experimental data published in PubChem BioAssay AID248 (DTP/NCI, 2004).
The list is a part of this screen's results and no random one: it gathers tests that were run many times, whatever their T/C, doses with no T/C, and many T/C values between a quarter and a half above the control. Other doses and runs of a compound stand elsewhere. T/C: endpoint of the treated group in % of that of the vehicle group. Some entries give survivors of the animals treated and no T/C: the source files T/C as zero there, which appears to mark a toxic dose or a test without result, not a measured value. Some survivor counts are full or nearly so, which does not show that the dose was tolerated: the source hardly ever lists a survival T/C far under the control, and the zero likely stands for such cases as well. Survivors were counted at the toxicity check, usually on the fifth day, unless a day is given; later deaths do not show. Schedules are NCI's codes, taken here to give the interval after Q, in days (D) or hours (H), and the number of doses after X. Some schedule codes hold Z or #, which are not explained here.

Tested on: L1210 leukemia ip in BDF1 mice, survival T/C
Assay: NCI In Vivo Anticancer Drug Screen. Data for tumor model L1210 Leukemia (intraperitoneal) in B6D2F1 (BDF1) mice
Conditions: T/C endpoint: mean survival time, higher T/C = longer survival
[1] = dose: 200.0 mg/kg/injection, schedule: Q01DX001 (ip), vehicle: saline
[2] = dose: 400.0 mg/kg/injection, schedule: Q01DX001 (ip), vehicle: saline
[3] = dose: 400.0 mg/kg/injection, schedule: Q01DX001 (ip), vehicle: carboxymethylcellulose (CMC)
[4] = dose: 200.0 mg/kg/injection, schedule: Q01DX009 (ip), vehicle: saline
[5] = dose: 400.0 mg/kg/injection, schedule: Q04DX003 (ip), vehicle: saline
[6] = dose: 100.0 mg/kg/injection, schedule: Q01DX001 (ip), vehicle: carboxymethylcellulose (CMC)
[7] = dose: 200.0 mg/kg/injection, schedule: Q01DX001 (ip), vehicle: carboxymethylcellulose (CMC)
[8] = dose: 200.0 mg/kg/injection, schedule: Q04DX003 (ip), vehicle: water
[9] = dose: 400.0 mg/kg/injection, schedule: Q04DX003 (ip), vehicle: water
[10] = dose: 50.0 mg/kg/injection, schedule: Q04DX003 (ip), vehicle: saline with Tween-80
[11] = dose: 100.0 mg/kg/injection, schedule: Q04DX003 (ip), vehicle: saline with Tween-80

Question: Which survivor count [1] does the source give for `CC(C)(C)NN` here?
Answer: 0 of 4

Question: And the survivor count [2]?
Answer: 0 of 4

Question: Which survivor count (dose: 400.0 mg/kg/injection, schedule: Q01DX009 (ip), vehicle: Klucel (hydroxypropylcellulose) (HPC)) does the source give for `CC1CCCC[N-]1.CC1CCCC[N-]1.[Cl][Pt+2][Cl]` (centres undefined) here?
Answer: 4 of 6

Question: How did the survivor count [3] turn out when `S=C(NP(=S)(NC(=S)OCCN1CC1)NC(=S)OCCN1CC1)OCCN1CC1` was run?
Answer: 0 of 6

Question: Which results are given for `CC(C)(Cl)/N=N/C(C)(C)Cl`?
Answer: survivor count (dose: 200.0 mg/kg/injection, schedule: Q01DX001 (ip), vehicle: Klucel (hydroxypropylcellulose) (HPC)): 6 of 6; survivor count (dose: 400.0 mg/kg/injection, schedule: Q01DX001 (ip), vehicle: Klucel (hydroxypropylcellulose) (HPC)): 1 of 6

Question: What does the source list for `CC1=CC(=O)c2[nH]ncc2C1=O`?
Answer: survivor count (dose: 20.0 mg/kg/injection, schedule: Q01DX001 (ip), vehicle: water): 0 of 4; survivor count (dose: 40.0 mg/kg/injection, schedule: Q01DX001 (ip), vehicle: water): 0 of 4; survivor count (dose: 80.0 mg/kg/injection, schedule: Q01DX001 (ip), vehicle: water): 0 of 4

Question: With `CC(C)c1cccc(OC(=O)N(C)[Si](C)(C)C)c1` as the compound, how does the survivor count (dose: 80.0 mg/kg/injection, schedule: Q01DX001 (ip), vehicle: saline) read?
Answer: 0 of 6

Question: Which results are given for `CC(=O)OCC1OC(NC(=O)N(CCCl)N=O)C(OC(C)=O)C(OC(C)=O)C1OC(C)=O` (centres undefined)?
Answer: survivor count (dose: 44.0 mg/kg/injection, schedule: Q01DX001 (ip), vehicle: saline with Tween-80): 10 of 10; survivor count (dose: 67.0 mg/kg/injection, schedule: Q01DX001 (ip), vehicle: saline with Tween-80): 10 of 10; survivor count (dose: 100.0 mg/kg/injection, schedule: Q01DX001 (ip), vehicle: saline with Tween-80): 10 of 10

Question: `CCCC1(C)COB(c2ccc(C)cc2)OC1` was tested. Which survivor count (dose: 25.0 mg/kg/injection, schedule: Q04DX003 (ip), vehicle: Klucel (hydroxypropylcellulose) (HPC)) did it give?
Answer: 4 of 4

Question: For `CCCCCCCCCCC(=O)[O][Hg][c]1ccccc1`, which survivor count (dose: 37.5 mg/kg/injection, schedule: Q01DX001 (ip), vehicle: saline) is on record?
Answer: 0 of 6

Question: What about the survivor count (dose: 75.0 mg/kg/injection, schedule: Q01DX001 (ip), vehicle: other) of the same compound?
Answer: 1 of 6

Question: What about the survivor count (dose: 150.0 mg/kg/injection, schedule: Q01DX001 (ip), vehicle: other) of the same compound?
Answer: 0 of 6

Question: And the survivor count (dose: 300.0 mg/kg/injection, schedule: Q01DX001 (ip), vehicle: other)?
Answer: 1 of 6

Question: Which survivor count (dose: 200.0 mg/kg/injection, schedule: Q01DX009 (ip), vehicle: acetone) does the source give for `COc1nc2ccccc2nc1N1CC1` here?
Answer: 2 of 6

Question: How did the survivor count (dose: 100.0 mg/kg/injection, schedule: Q04DX003 (ip), vehicle: Klucel (hydroxypropylcellulose) (HPC)) turn out when `CN(C)S(=O)(=O)/C=C/c1ccccc1` was run?
Answer: 0 of 6

Question: For `O=C1NC(=O)C(=Cc2ccccc2)C(=O)N1`, which survivor count (dose: 100.0 mg/kg/injection, schedule: Q01DX Z (ip), vehicle: methylcellulose (MC)) is on record?
Answer: 6 of 6

Question: And the survivor count (dose: 400.0 mg/kg/injection, schedule: Q04DX002 (ip), vehicle: saline with Tween-80)?
Answer: 0 of 3

Question: For `O=C(Nc1ccccc1C(=O)NC1CCCC1)NC1CCCC1`, which survivor count (dose: 400.0 mg/kg/injection, schedule: Q04DX003 (ip), vehicle: Klucel (hydroxypropylcellulose) (HPC)) is on record?
Answer: 6 of 6

Question: What does the source list for `O=C(/C(=N\Nc1ccc([N+](=O)[O-])cc1)c1ccccc1)c1ccccc1`?
Answer: survivor count (dose: 100.0 mg/kg/injection, schedule: Q01DX009 (ip), vehicle: saline with Tween-80): 6 of 6; survivor count (dose: 200.0 mg/kg/injection, schedule: Q01DX009 (ip), vehicle: saline with Tween-80): 6 of 6; survivor count (dose: 400.0 mg/kg/injection, schedule: Q01DX009 (ip), vehicle: saline with Tween-80): 5 of 6

Question: With `CCCNC` as the compound, how does the survivor count [4] read?
Answer: 0 of 6

Question: What about the survivor count [5] of the same compound?
Answer: 1 of 6

Question: How did the survivor count (dose: 80.0 mg/kg/injection, schedule: Q01DX001 (ip), vehicle: carboxymethylcellulose (CMC)) turn out when `CCOC(=O)c1ccc(NCCC(=O)CBr)cc1` was run?
Answer: 2 of 4

Question: What about the survivor count [6] of the same compound?
Answer: 0 of 4

Question: And the survivor count [7]?
Answer: 1 of 4

Question: And the survivor count [3]?
Answer: 0 of 4

Question: Which survivor count [6] does the source give for `COc1ccc(OC)c(CBr)c1CBr` here?
Answer: 0 of 4

Question: And the survivor count [7]?
Answer: 0 of 4

Question: What about the survivor count [3] of the same compound?
Answer: 0 of 4

Question: `C[n+]1c(-c2ccccc2)c2ccccc2c2ccccc21` was tested. Which survivor count (dose: 6.25 mg/kg/injection, schedule: Q01DX009 (ip), vehicle: water) did it give?
Answer: 0 of 6

Question: What about the survivor count (dose: 6.25 mg/kg/injection, schedule: Q04DX003 (ip), vehicle: water) of the same compound?
Answer: 6 of 6

Question: And the survivor count (dose: 12.5 mg/kg/injection, schedule: Q04DX003 (ip), vehicle: water)?
Answer: 0 of 6

Question: And the survivor count (dose: 25.0 mg/kg/injection, schedule: Q04DX003 (ip), vehicle: water)?
Answer: 0 of 6

Question: And the survivor count (dose: 50.0 mg/kg/injection, schedule: Q04DX003 (ip), vehicle: water)?
Answer: 0 of 6

Question: What about the survivor count (dose: 100.0 mg/kg/injection, schedule: Q04DX003 (ip), vehicle: water) of the same compound?
Answer: 0 of 6

Question: What about the survivor count [8] of the same compound?
Answer: 0 of 6

Question: What about the survivor count [9] of the same compound?
Answer: 0 of 6

Question: `CS(=O)c1ncc2cnccn12` (centres undefined) was tested. Which survivor count [8] did it give?
Answer: 3 of 6

Question: What about the survivor count (dose: 400.0 mg/kg/injection, schedule: Q01DX009 (ip), vehicle: water) of the same compound?
Answer: 0 of 6

Question: What about the survivor count [9] of the same compound?
Answer: 0 of 6

Question: Which survivor count (dose: 150.0 mg/kg/injection, schedule: Q01DX001 (ip), vehicle: saline) does the source give for `O=[N+]([O-])c1ccc2c(c1)[As](=O)(O)c1cc([N+](=O)[O-])ccc1-2` here?
Answer: 2 of 6

Question: And the survivor count (dose: 300.0 mg/kg/injection, schedule: Q01DX001 (ip), vehicle: saline)?
Answer: 0 of 6

Question: How did the survivor count [10] turn out when `O=[N+]([O-])c1ccc(S(=O)Cc2ccccc2)c2c1no[n+]2[O-]` (centres undefined) was run?
Answer: 2 of 4

Question: And the survivor count [11]?
Answer: 0 of 4

Question: How did the survivor count (dose: 100.0 mg/kg/injection, schedule: Q04DX002 (ip), vehicle: Klucel (hydroxypropylcellulose) (HPC)) turn out when `CC(C)CN=C(N)CSS(=O)(=O)O` was run?
Answer: 1 of 3

Question: What about the survivor count (dose: 400.0 mg/kg/injection, schedule: Q04DX002 (ip), vehicle: Klucel (hydroxypropylcellulose) (HPC)) of the same compound?
Answer: 0 of 3

Question: How did the survivor count (dose: 200.0 mg/kg/injection, schedule: Q04DX003 (ip), vehicle: saline) turn out when `CC1CN1N` (centres undefined) was run?
Answer: 0 of 6

Question: What about the survivor count [2] of the same compound?
Answer: 1 of 6

Question: For `S=P(c1ccccc1)(N1CCN(c2ccc(Cl)cc2)CC1)N1CCN(c2ccc(Cl)cc2)CC1`, which survivor count [1] is on record?
Answer: 6 of 6

Question: What about the survivor count (dose: 200.0 mg/kg/injection, schedule: Q04DX003 (ip), vehicle: Klucel (hydroxypropylcellulose) (HPC)) of the same compound?
Answer: 6 of 6

Question: Which survivor count [2] does the source give for `Cc1ccc([I+]c2ccccc2C(=O)[O-])c(C)c1` here?
Answer: 2 of 4

Question: For `COC(C)CCC(=O)O.[Ag]` (centres undefined), which survivor count [10] is on record?
Answer: 6 of 6

Question: What about the survivor count (dose: 100.0 mg/kg/injection, schedule: Q04DX003 (ip), vehicle: acetone) of the same compound?
Answer: 0 of 6

Question: And the survivor count (dose: 200.0 mg/kg/injection, schedule: Q04DX003 (ip), vehicle: acetone)?
Answer: 0 of 6

Question: What about the survivor count (dose: 400.0 mg/kg/injection, schedule: Q04DX003 (ip), vehicle: acetone) of the same compound?
Answer: 0 of 6

Question: How did the survivor count (dose: 32.0 mg/kg/injection, schedule: Q01DX Z (ip), vehicle: saline) turn out when `CC(C)(c1ccccc1)[N+](C)(C)C` was run?
Answer: 0 of 6

Question: And the survivor count (dose: 50.0 mg/kg/injection, schedule: Q01DX001 (ip), vehicle: saline)?
Answer: 0 of 4

Question: And the survivor count (dose: 100.0 mg/kg/injection, schedule: Q01DX001 (ip), vehicle: saline)?
Answer: 0 of 4

Question: What about the survivor count [11] of the same compound?
Answer: 0 of 6

Question: What about the survivor count [1] of the same compound?
Answer: 0 of 4

Question: What about the survivor count (dose: 200.0 mg/kg/injection, schedule: Q04DX003 (ip), vehicle: saline with Tween-80) of the same compound?
Answer: 0 of 6

Question: What about the survivor count [2] of the same compound?
Answer: 0 of 4

Question: And the survivor count (dose: 400.0 mg/kg/injection, schedule: Q04DX003 (ip), vehicle: saline with Tween-80)?
Answer: 0 of 6

Question: With `Nc1[nH]c(=O)ncc1F` as the compound, how does the survivor count [3] read?
Answer: 1 of 6

Question: What about the survivor count (dose: 800.0 mg/kg/injection, schedule: Q01DX001 (ip), vehicle: carboxymethylcellulose (CMC)) of the same compound?
Answer: 0 of 6

Question: How did the survivor count [4] turn out when `S=C(S)N1CCN(C(=S)S)CC1` was run?
Answer: 3 of 6

Question: And the survivor count (dose: 400.0 mg/kg/injection, schedule: Q01DX009 (ip), vehicle: saline)?
Answer: 0 of 6

Question: And the survivor count [5]?
Answer: 2 of 6
